Measured values reported in patent US11266709B2, “Methods for the regulation of matrix metalloproteinase expression” (Stealth BioTherapeutics Corp, priority 2013, dated 2022).
At least one peptide structure holds a part that was inferred or is arguable (an end, a ring closure or a residue). Square brackets hold non-standard residues; d marks the D form. Peptide text beside a SMILES is read from it. Dmt = Cc1cc(O)cc(C)c1C[C@H](N)C(=O)O

Legend:
Assay type in all cases: in vivo, rat
left ventricle [1] = experiment: Heart weight and post-mortem LV volume; conditions: post-mortem, heart pressure fixed at 11 mmHg; 6 weeks after treatment; n = 28
left ventricle [2] = experiment: Quantitative histologic analysis of scar circumference, scar thickness and expansion index; conditions: expressed as percentage of total LV circumference; 6 weeks after treatment
TIMP-1 = experiment: qRT-PCR of TIMP-1 gene expression in heart samples post-myocardial infarction; conditions: 6 weeks
MMP-9 = experiment: qRT-PCR of MMP-9 gene expression in heart samples post-myocardial infarction; conditions: 6 weeks
[3] = Hemodynamics (heart rate, blood pressure, LV pressures by Millar catheter); conditions: 6 weeks after treatment, n = 28
left ventricle [4] = experiment: LV fractional shortening by echocardiography, permanent coronary occlusion model; conditions: mean±SEM
[5] = border zone cells (MI/BZ+AP), 3 mg/kg/day s.c. osmotic pump from 2 h post occlusion, relative to sham
[6] = nonischemic remote area (MI/R), 3 mg/kg/day s.c.

Cc1cc(O)cc(C)c1C[C@H](NC(=O)[C@H](N)CCCNC(=N)N)C(=O)N[C@@H](CCCCN)C(=O)N[C@@H](Cc1ccccc1)C(N)=O [D-Arg-2′6′-Dmt-Lys-Phe-NH2] (H-[dR][Dmt]KF-NH2)
LV volume (left ventricle [1]): 0.519 ± 0.019 mL | Scar circumference (%) (left ventricle [2]): 39.7±2.2% | TIMP-1 gene expression (TIMP-1; [5]): maintained TIMP-1 gene expression at high level | TIMP-1 gene expression (TIMP-1; [6]): no significant differences | MMP-9 gene expression (MMP-9; [5]): prevented up-regulation of MMP-9 | MMP-9 gene expression (MMP-9; [6]): no significant differences | Ped (end diastolic left ventricular pressure) [3]: 5.63 | Pes (end systolic left ventricular pressure) [3]: 105 | Pmin [3]: 0.64 | Tau Glantz [3]: 24.6 | Tau Weiss [3]: 14.6 | +dp/dt ([3]; left ventricle): 5668 | −dp/dt ([3]; left ventricle): 3639 | left ventricular fractional shortening (LVFS) (left ventricle [4]; 6 weeks after treatment, 3 mg/kg/day s.c. osmotic pump): 28.8±1.7% | left ventricular fractional shortening (LVFS) (left ventricle [4]; 15 minutes after coronary occlusion (before treatment)): 45±1.8
